From publication PMC5785023
No constants are given. Whether binding was seen depends on the method and setting. Binding seen in cells or lysates may run through a third protein. Binding can be weak; no strength is given. Tags and fused reporters may be left off the sequences shown.

T1: AKAP200-S-Flag (Drosophila melanogaster) (UniProt Q9VLL3)
T1 sequence: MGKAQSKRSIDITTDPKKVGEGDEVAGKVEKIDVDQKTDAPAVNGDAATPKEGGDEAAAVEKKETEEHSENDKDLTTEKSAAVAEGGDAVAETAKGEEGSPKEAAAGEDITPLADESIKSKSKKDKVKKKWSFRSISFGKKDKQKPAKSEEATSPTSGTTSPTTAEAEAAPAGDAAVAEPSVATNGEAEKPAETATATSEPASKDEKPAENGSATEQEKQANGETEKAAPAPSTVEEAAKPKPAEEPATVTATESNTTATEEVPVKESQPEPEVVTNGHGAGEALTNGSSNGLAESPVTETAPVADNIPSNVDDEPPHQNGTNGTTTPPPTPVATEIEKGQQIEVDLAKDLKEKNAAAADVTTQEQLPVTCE


Columns and labels:
[1] = target: T1, AKAP200-S-Flag (Drosophila melanogaster); test: co-IP; S2 cells co-transfected with pmt-Notch(full length) (600 μM CuSO4, 24 h) and pac-AKAP200-S-Flag or pAC-Flag control; lysis in 50mM Tris HCl pH 7.5, 150mM NaCl, 1mM EDTA, 1% Triton-X; anti-Flag M2 agarose overnight at 4°C; blot with anti-NICD (normal and long exposure)
[2] = target: Notch-GFP (Drosophila melanogaster); test: co-IP; S2 cells co-transfected with pac-AKAP200-S-Flag and pUAST-Notch-GFP or pUAST-GFP (with Actin-Gal4); GFP-Trap A (Chromotek); wash buffer 10mM TrisHCl pH7.5, 150mM NaCl, 0.5mM EDTA; blot with anti-Flag

binding [1]	binding [2]	Molecule
binds		Notch intracellular domain (NICD) fragment (Drosophila melanogaster) (domain or fragment)
no binding		full length Notch (Drosophila melanogaster) (receptor)
	binds	AKAP200-S-Flag (protein, UniProt Q9VLL3-2 1-372) MGKAQSKRSIDITTDPKKVGEGDEVAGKVEKIDVDQKTDAPAVNGDAATPKEGGDEAAAVEKKETEEHSENDKDLTTEKSAAVAEGGDAVAETAKGEEGSPKEAAAGEDITPLADESIKSKSKKDKVKKKWSFRSISFGKKDKQKPAKSEEATSPTSGTTSPTTAEAEAAPAGDAAVAEPSVATNGEAEKPAETATATSEPASKDEKPAENGSATEQEKQANGETEKAAPAPSTVEEAAKPKPAEEPATVTATESNTTATEEVPVKESQPEPEVVTNGHGAGEALTNGSSNGLAESPVTETAPVADNIPSNVDDEPPHQNGTNGTTTPPPTPVATEIEKGQQIEVDLAKDLKEKNAAAADVTTQEQLPVTCE
